# From PubChem BioAssay AID2662 (National Center for Advancing Translational Sciences (NCATS), 2010)
# Chains of the proteins cited; added tags and fusions are not shown.
# UniProt Q03164, whole entry, looked up: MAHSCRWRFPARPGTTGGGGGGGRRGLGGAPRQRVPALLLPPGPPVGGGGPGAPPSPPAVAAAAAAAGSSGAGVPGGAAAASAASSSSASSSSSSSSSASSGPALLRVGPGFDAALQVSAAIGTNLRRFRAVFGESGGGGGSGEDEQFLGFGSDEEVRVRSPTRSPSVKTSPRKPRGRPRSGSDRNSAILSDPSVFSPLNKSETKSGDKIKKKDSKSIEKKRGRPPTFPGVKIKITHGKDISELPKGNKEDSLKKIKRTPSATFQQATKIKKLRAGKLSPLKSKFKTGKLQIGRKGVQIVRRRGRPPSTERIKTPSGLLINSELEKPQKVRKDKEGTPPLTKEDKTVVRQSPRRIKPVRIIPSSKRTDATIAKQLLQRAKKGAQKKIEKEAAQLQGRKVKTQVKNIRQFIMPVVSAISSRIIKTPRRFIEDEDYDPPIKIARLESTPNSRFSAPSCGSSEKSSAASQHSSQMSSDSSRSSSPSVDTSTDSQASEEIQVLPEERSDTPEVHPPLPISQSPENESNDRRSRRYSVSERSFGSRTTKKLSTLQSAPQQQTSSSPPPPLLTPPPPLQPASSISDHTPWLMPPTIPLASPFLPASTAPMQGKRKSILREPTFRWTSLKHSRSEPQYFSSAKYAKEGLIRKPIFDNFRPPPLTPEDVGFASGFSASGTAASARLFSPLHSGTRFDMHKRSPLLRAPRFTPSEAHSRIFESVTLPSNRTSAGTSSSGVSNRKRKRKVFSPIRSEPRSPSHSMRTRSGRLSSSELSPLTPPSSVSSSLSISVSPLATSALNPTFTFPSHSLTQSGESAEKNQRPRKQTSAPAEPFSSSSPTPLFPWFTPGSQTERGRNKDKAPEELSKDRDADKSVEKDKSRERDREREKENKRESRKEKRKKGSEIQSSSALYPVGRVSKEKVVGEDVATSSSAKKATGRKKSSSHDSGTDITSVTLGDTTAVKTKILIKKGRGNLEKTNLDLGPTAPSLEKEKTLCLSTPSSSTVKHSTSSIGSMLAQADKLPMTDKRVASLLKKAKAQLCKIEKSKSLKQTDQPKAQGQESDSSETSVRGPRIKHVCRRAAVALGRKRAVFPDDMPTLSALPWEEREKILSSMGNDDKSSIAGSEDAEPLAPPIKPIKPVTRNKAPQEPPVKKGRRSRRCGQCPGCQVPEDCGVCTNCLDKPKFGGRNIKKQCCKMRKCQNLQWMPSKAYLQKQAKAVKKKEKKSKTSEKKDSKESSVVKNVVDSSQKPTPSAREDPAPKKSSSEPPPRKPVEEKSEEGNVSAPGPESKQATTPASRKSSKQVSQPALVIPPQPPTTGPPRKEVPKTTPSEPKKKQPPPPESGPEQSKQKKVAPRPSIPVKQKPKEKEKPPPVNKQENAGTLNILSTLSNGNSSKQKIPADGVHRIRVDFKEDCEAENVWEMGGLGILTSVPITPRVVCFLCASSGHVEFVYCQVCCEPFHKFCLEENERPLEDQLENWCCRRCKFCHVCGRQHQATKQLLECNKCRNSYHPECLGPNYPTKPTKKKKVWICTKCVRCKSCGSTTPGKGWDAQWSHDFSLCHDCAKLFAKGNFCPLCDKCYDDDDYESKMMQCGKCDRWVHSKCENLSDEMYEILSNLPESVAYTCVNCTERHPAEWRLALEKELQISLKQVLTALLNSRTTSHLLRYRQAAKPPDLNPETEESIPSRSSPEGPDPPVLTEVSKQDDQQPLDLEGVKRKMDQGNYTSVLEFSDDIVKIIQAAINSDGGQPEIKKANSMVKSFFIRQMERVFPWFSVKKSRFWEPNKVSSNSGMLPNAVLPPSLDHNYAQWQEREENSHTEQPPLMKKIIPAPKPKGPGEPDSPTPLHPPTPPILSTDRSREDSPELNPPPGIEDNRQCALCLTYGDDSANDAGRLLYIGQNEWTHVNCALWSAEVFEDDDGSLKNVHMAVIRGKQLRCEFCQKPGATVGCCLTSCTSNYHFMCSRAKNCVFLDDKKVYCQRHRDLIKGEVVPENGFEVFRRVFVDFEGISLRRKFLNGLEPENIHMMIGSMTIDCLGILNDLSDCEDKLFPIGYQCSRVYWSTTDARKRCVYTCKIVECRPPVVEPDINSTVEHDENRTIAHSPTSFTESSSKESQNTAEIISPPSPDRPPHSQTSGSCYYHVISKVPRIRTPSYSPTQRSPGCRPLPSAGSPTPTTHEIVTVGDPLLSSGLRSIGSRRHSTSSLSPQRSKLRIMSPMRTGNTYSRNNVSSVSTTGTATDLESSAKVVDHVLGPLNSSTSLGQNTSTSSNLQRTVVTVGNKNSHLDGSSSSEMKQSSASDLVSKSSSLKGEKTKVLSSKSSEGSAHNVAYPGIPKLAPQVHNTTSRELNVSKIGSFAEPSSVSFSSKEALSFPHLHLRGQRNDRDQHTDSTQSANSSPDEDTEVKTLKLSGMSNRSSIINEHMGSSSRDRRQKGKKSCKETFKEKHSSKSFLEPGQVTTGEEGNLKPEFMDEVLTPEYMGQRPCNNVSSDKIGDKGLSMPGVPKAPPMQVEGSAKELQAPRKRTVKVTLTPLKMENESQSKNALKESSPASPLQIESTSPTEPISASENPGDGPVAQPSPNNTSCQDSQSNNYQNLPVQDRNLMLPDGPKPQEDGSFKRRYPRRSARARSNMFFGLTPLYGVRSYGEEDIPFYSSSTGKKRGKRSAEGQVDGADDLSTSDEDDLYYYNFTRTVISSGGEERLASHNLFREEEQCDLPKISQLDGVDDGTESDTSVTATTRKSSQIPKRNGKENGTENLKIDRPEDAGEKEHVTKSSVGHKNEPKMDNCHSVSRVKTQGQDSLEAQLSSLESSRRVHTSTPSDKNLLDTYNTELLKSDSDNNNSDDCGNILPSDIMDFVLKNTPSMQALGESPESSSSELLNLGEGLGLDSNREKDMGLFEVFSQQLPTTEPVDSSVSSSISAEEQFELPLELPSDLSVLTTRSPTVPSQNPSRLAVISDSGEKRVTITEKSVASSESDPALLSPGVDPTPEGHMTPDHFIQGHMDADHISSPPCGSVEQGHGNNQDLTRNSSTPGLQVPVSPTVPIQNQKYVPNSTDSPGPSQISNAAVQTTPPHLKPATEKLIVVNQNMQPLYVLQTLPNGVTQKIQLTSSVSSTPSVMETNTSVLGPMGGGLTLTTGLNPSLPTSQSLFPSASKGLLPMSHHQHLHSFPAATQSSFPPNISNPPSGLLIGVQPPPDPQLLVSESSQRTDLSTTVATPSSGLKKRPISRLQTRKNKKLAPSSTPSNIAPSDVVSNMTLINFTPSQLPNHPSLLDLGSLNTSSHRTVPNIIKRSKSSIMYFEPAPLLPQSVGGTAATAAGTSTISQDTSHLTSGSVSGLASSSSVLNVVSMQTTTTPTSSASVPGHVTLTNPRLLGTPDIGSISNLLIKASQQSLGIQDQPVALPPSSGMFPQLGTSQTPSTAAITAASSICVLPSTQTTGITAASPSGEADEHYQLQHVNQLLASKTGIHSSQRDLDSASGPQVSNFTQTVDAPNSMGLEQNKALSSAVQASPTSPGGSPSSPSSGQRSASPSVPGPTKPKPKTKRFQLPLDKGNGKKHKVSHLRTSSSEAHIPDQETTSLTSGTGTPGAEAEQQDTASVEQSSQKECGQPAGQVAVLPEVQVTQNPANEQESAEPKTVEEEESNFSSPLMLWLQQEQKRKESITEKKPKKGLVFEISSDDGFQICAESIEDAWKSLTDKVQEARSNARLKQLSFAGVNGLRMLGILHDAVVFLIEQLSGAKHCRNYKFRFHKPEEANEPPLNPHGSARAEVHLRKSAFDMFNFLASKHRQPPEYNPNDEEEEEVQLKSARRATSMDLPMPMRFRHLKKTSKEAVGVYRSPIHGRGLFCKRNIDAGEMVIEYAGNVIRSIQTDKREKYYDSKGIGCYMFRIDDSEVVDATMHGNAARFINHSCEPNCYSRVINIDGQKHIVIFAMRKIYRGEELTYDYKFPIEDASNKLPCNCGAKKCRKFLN
# In all, about 290,000 compounds went through this assay and about 110 (0.038%) were called active. The inconclusive results got no clear call from the source; some entries with a clear call stand among them for comparison. Calls come from the whole dose curve; as a rule, active = well fitted inhibition curve with a large enough effect in the polarisation, with a control signal flat (not every such curve was filed as active); inconclusive = small, poorly fitted or top-dose-only effect, or effect the other way, or a change in a side signal; inactive = no such curve, though single readings can be large or run the other way; the % refers to the polarisation. Potencies of inconclusive entries are doubtful fits and often do not repeat. “Side channel” marks fits to a control or component signal instead of the main read-out.
# Biological target: Histone-lysine N-methyltransferase 2A (Homo sapiens) (UniProt Q03164)
# Assay: qHTS Fluorescence Polarization Assay for Inhibitors of MLL CXXC domain - DNA interaction
# Conditions: MLL-CXXC / FITC-HOXA9 DNA fluorescence polarization; series mostly up to 115 µM
# How it was run: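 Fluorescence polarization: 7 uM MLL-CXXC (stock) preincubated 5 min with compounds, then 50 nM fluorescein-HOX-A9 DNA (stock) added; 30 min ambient. Buffer 50 mM Tris-HCl pH 7.5, 50 mM NaCl, 1 mM DTT, 0.05% BSA.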
# Potency is the fitted concentration of half-maximal effect.
row,SMILES,Potency
1,Cc1ccc(O)c(-c2[nH]ncc2C(=O)c2ccc(Cl)cc2)c1,"inconclusive: 8.91 µM [inhibitor, single point]"
2,Cc1cccn2c(=O)c3cc(C(=O)NCC4CCCO4)c(=N)n(C4CCCCC4)c3nc12 (stereo not drawn),inactive
3,COc1cc(/C=N/NC(=O)Cc2cccs2)c([N+](=O)[O-])cc1OC,"inconclusive: 1.12 µM [fluorescent, side channel, full curve, poor fit]"
4,O=C1Nc2ccccc2C1=Nc1cccc([N+](=O)[O-])c1,"inconclusive: 17.8 µM [inhibitor, partial curve, poor fit]"
5,CCCCCCSc1nc(O)c(C2OC(=O)c3c2ccc(OC)c3OC)c(=O)n1CC (stereo not drawn),"inconclusive: 31.6 µM [inhibitor, single point]"
6,OC(CN1CCN(C(c2ccccc2)c2ccccc2)CC1)c1ccc(Br)cc1 (stereo not drawn),"inconclusive: 63.1 µM [fluorescent, side channel, single point]"
7,O=C(COC(=O)CNC(=O)c1ccco1)Nc1ccccc1OC(F)F,"inconclusive: 22.4 µM [fluorescent, side channel, partial curve]"
8,CCOC(=O)c1cccc(NC(=O)C2CCN(S(=O)(=O)c3cccs3)CC2)c1,"inconclusive: 89.1 µM [quencher, side channel, single point]"
9,O=C(CSc1ccc2nnc(-c3ccccn3)n2n1)Nc1ccc(F)cc1F,"inconclusive: 8.91 µM [quencher, side channel, single point]"
10,COC(=O)Nc1ccc(S(=O)(=O)Nc2cc(OC)nc(OC)n2)cc1,"inconclusive: 10 µM [fluorescent, side channel, single point]"
11,Cc1cc(/C=C2\SC(=S)NC2=O)c(C)n1-c1cccc(O)c1,"inconclusive: 79.4 µM [fluorescent, side channel, single point]"
12,CCOC(=O)c1c(NC(C)=O)sc2c(OCC(O)CN(CC)CC)c(Br)ccc12 (stereo not drawn),"inconclusive: 50.1 µM [inhibitor, single point]"
13,Cc1nc2ccc(NC(=O)CSc3nnc(C)s3)cc2[nH]1,inactive
14,COc1ccc(S(=O)(=O)N2N=C(c3ccc(NS(C)(=O)=O)cc3)CC2c2ccco2)cc1 (stereo not drawn),"inconclusive: 63.1 µM [fluorescent, side channel, single point]"
15,COc1cc(Br)c(CCNC(=O)Cc2ccccc2)cc1OC,"inconclusive: 3.55 µM [quencher, side channel, partial curve]"
16,COc1ccc(-c2cc(-c3cccs3)c(C#N)c(SCC(=O)NCc3ccco3)n2)cc1,inactive
17,Oc1ccccc1/C=N/Nc1cccc2cccnc12,inactive
18,O=C(Nc1ncc([N+](=O)[O-])s1)C1COc2ccccc2O1 (stereo not drawn),inactive
19,CCc1ccc(S(=O)(=O)/N=C2\C=C(Nc3cccc(C(=O)O)c3)C(=O)c3ccccc32)cc1,"inconclusive: 31.6 µM [inhibitor, single point]"

# As entered above.
# Under Potency, `O=C1Nc2ccccc2C1=Nc1cccc([N+](=O)[O-])c1` is listed with inconclusive: 17.8 µM [inhibitor, partial curve, poor fit]
# Under Potency, `CCOC(=O)c1c(NC(C)=O)sc2c(OCC(O)CN(CC)CC)c(Br)ccc12` (stereo not drawn) is listed with inconclusive: 50.1 µM [inhibitor, single point]

# Additional results:

row,SMILES,Potency
1,CC1C/C(=C/c2cccn2C)C(=O)/C(=C/c2cccn2C)C1 (stereo not drawn),"inconclusive: 31.6 µM [fluorescent, side channel, partial curve]"
2,CN(C)/C=C/C(=O)c1ccc(-c2ccc(Cl)cc2Cl)o1,"inconclusive: 44.7 µM [fluorescent, side channel, single point]"
3,O=C(NNC(=O)c1ccccc1O)c1cccc(Br)c1,inactive
4,COc1ccc(C(=O)Nn2c(SCC(=O)c3ccccc3)nc3ccccc3c2=O)cc1,"inconclusive: 6.31 µM [inhibitor, full curve, poor fit]"
5,Cc1ccc2occ(/C=N/NC(=O)c3ccc(Cl)cc3)c(=O)c2c1,"inconclusive: 14.1 µM [fluorescent, side channel, single point]"
6,CCOC(=O)C1CCN(Cc2ccccc2C(F)(F)F)CC1,inactive
7,N#CC(C#N)=C1C=C2C=C(N3CCCCC3)CCC2CC1 (stereo not drawn),"inconclusive: 0.891 µM [fluorescent, side channel, full curve, poor fit]"
8,Cc1ccc(CNC(=O)C(=O)NCC2OCCN2C(=O)c2ccc3c(c2)OCO3)cc1 (stereo not drawn),"inconclusive: 89.1 µM [quencher, side channel, single point]"
9,COc1ccc(/C=C2/N=C(c3cccs3)OC2=O)cc1OC(C)C,"inconclusive: 63.1 µM [fluorescent, side channel, single point]"
10,COc1cccc(/C=N/NC(=O)c2cc3c(OC)cccc3[nH]2)c1OC,"inconclusive: 89.1 µM [inhibitor, single point]"
11,COC(=O)COc1ccc2c(c1C)O/C(=C\c1ccco1)C2=O,"inconclusive: 10 µM [fluorescent, side channel, partial curve]"
12,CSc1ccc(/C=c2\s/c(=C\C(=O)C(C)(C)C)n(CC(=O)NCCC3=CCCCC3)c2=O)cc1,"inconclusive: 31.6 µM [fluorescent, side channel, single point]"
13,O=C(O)C1Nc2ccc(Br)cc2C2C=CCC12 (stereo not drawn),"inconclusive: 31.6 µM [inhibitor, partial curve, poor fit]"
14,CN1CCc2nc3sc(C(=O)C45CC6CC(CC(C6)C4)C5)c(N)c3cc2C1,"inconclusive: 35.5 µM [quencher, side channel, partial curve, poor fit]"
15,COc1ccc(O)c(/C=N/c2nc3ccccc3n2C)c1,"inconclusive: 35.5 µM [fluorescent, side channel, partial curve, poor fit]"
16,COc1cc(C)nc(OCCNC(=O)COc2ccc(Cl)cc2C)n1,inactive
17,COc1cc(/C=C2/SC(=O)NC2=O)ccc1OCc1ccccc1,"inconclusive: 7.08 µM [inhibitor, partial curve]"
18,CCOc1cc(/C=C/c2nc3ccccc3c(=O)[nH]2)cc(Br)c1OC,"inconclusive: 31.6 µM [fluorescent, side channel, partial curve]"
19,COc1ccc2nc3cccc(OC)c3nc2c1,"inconclusive: 35.5 µM [inhibitor, single point]"
